{"source": "PubChem BioAssay AID652272 | Drosophila RNAi Screening Center – 2013", "screen": "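Genome-wide knock-down search for components of Hedgehog signalling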 (primary screen)", "cell system": "Drosophila clone 8 (Cl8) cells", "knock-down reagent": "long dsRNA against Drosophila genes", "measurement": "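Plate reader light from a firefly reporter under a ptc promoter fragment that responds to Hedgehog, with Renilla light as transfection reference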", "reading the numbers": "firefly Hh reporter signal: higher = more ptc reporter light; Renilla reference signal: higher = more Renilla control light", "call rule": "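Called a hit if the two-replicate mean z-score lies below -2 or above +3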", "calls": "active = hit: reporter lowered or raised; inactive = not a hit", "note": "In all, the deposit lists about 21,000 reagents; below is an unselected part of those that have a named target and a result. Over the whole deposit, 503 (2.4%) got an active call. 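Raw plate light values, not normalised; calls rest on replicate z-scores that were not deposited; hits include reporter decreases as well as increases.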 A plus sign joins genes that one reagent is predicted to hit. Not given: the amount of reagent, the time to read-out."}
The first 2 records, ahead of the listing:
{"Target gene": "Chro (Chromator)", "amplicon": "DRSC11630", "firefly Hh reporter signal, replicate 1": 1.25e5, "firefly Hh reporter signal, replicate 2": 92759, "Renilla reference signal, replicate 1": 3525, "Renilla reference signal, replicate 2": 2449, "Outcome": "active"}
{"Target gene": "Tim17b1", "amplicon": "DRSC12179", "firefly Hh reporter signal, replicate 1": 66176, "firefly Hh reporter signal, replicate 2": 1.67e5, "Renilla reference signal, replicate 1": 2477, "Renilla reference signal, replicate 2": 5080, "Outcome": "inactive"}

Main list, from the start:
{"Target gene": "Chro (Chromator)", "amplicon": "DRSC11630", "firefly Hh reporter signal, replicate 1": 1.25e5, "firefly Hh reporter signal, replicate 2": 92759, "Renilla reference signal, replicate 1": 3525, "Renilla reference signal, replicate 2": 2449, "Outcome": "active"}
{"Target gene": "Tim17b1", "amplicon": "DRSC12179", "firefly Hh reporter signal, replicate 1": 66176, "firefly Hh reporter signal, replicate 2": 1.67e5, "Renilla reference signal, replicate 1": 2477, "Renilla reference signal, replicate 2": 5080, "Outcome": "inactive"}
{"Target gene": "Spn28Da (Serpin 28Da)", "amplicon": "DRSC02162", "firefly Hh reporter signal, replicate 1": 80563, "firefly Hh reporter signal, replicate 2": 49505, "Renilla reference signal, replicate 1": 1969, "Renilla reference signal, replicate 2": 3872, "Outcome": "inactive"}
{"Target gene": "CG31041", "amplicon": "DRSC13951", "firefly Hh reporter signal, replicate 1": 48359, "firefly Hh reporter signal, replicate 2": 2.54e5, "Renilla reference signal, replicate 1": 13181, "Renilla reference signal, replicate 2": 6067, "Outcome": "inactive"}
{"Target gene": "CCT5 (Chaperonin containing TCP1 subunit 5)", "amplicon": "DRSC07357", "firefly Hh reporter signal, replicate 1": 54587, "firefly Hh reporter signal, replicate 2": 53692, "Renilla reference signal, replicate 1": 2641, "Renilla reference signal, replicate 2": 2032, "Outcome": "inactive"}
{"Target gene": "CG5938", "amplicon": "DRSC15923", "firefly Hh reporter signal, replicate 1": 84672, "firefly Hh reporter signal, replicate 2": 58357, "Renilla reference signal, replicate 1": 2184, "Renilla reference signal, replicate 2": 1650, "Outcome": "inactive"}
{"Target gene": "Polr1A (RNA polymerase I subunit A)", "amplicon": "DRSC07535", "firefly Hh reporter signal, replicate 1": 64432, "firefly Hh reporter signal, replicate 2": 47318, "Renilla reference signal, replicate 1": 4662, "Renilla reference signal, replicate 2": 2901, "Outcome": "inactive"}
{"Target gene": "CG13561", "amplicon": "DRSC04199", "firefly Hh reporter signal, replicate 1": 1.01e5, "firefly Hh reporter signal, replicate 2": 79684, "Renilla reference signal, replicate 1": 2598, "Renilla reference signal, replicate 2": 7581, "Outcome": "inactive"}
{"Target gene": "cu (curled)", "amplicon": "DRSC15643", "firefly Hh reporter signal, replicate 1": 54636, "firefly Hh reporter signal, replicate 2": 97305, "Renilla reference signal, replicate 1": 1683, "Renilla reference signal, replicate 2": 2481, "Outcome": "inactive"}
{"Target gene": "cu (curled)", "amplicon": "DRSC15648", "firefly Hh reporter signal, replicate 1": 1.50e5, "firefly Hh reporter signal, replicate 2": 1.38e5, "Renilla reference signal, replicate 1": 4166, "Renilla reference signal, replicate 2": 3661, "Outcome": "inactive"}
{"Target gene": "CG7320", "amplicon": "DRSC10810", "firefly Hh reporter signal, replicate 1": 1.53e5, "Renilla reference signal, replicate 1": 2003, "Renilla reference signal, replicate 2": 4424, "Outcome": "inactive"}
{"Target gene": "Cpr35B (Cuticular protein 35B)", "amplicon": "DRSC01949", "firefly Hh reporter signal, replicate 1": 2.10e5, "firefly Hh reporter signal, replicate 2": 8.71e5, "firefly Hh reporter signal, replicate 3": 76874, "Renilla reference signal, replicate 1": 5037, "Renilla reference signal, replicate 2": 46410, "Outcome": "inactive"}
{"Target gene": "fry (furry)", "amplicon": "DRSC08993", "firefly Hh reporter signal, replicate 1": 1.51e5, "firefly Hh reporter signal, replicate 2": 3.16e5, "Renilla reference signal, replicate 1": 4411, "Renilla reference signal, replicate 2": 14162, "Outcome": "inactive"}
{"Target gene": "fry (furry)", "amplicon": "DRSC10172", "firefly Hh reporter signal, replicate 1": 18196, "firefly Hh reporter signal, replicate 2": 27432, "firefly Hh reporter signal, replicate 3": 62269, "Renilla reference signal, replicate 1": 2677, "Renilla reference signal, replicate 2": 3605, "Outcome": "inactive"}
{"Target gene": "fry (furry)", "amplicon": "DRSC10709", "firefly Hh reporter signal, replicate 1": 26295, "firefly Hh reporter signal, replicate 2": 35640, "firefly Hh reporter signal, replicate 3": 52843, "Renilla reference signal, replicate 1": 4934, "Renilla reference signal, replicate 2": 3302, "Outcome": "inactive"}
{"Target gene": "fry (furry)", "amplicon": "DRSC10712", "firefly Hh reporter signal, replicate 1": 1.17e5, "firefly Hh reporter signal, replicate 2": 63273, "Renilla reference signal, replicate 1": 4279, "Renilla reference signal, replicate 2": 2091, "Outcome": "inactive"}
{"Target gene": "Nup160 + RfC38", "amplicon": "DRSC01997", "firefly Hh reporter signal, replicate 1": 52386, "firefly Hh reporter signal, replicate 2": 27552, "Renilla reference signal, replicate 1": 2491, "Renilla reference signal, replicate 2": 1226, "Outcome": "inactive"}
{"Target gene": "whe (what else)", "amplicon": "DRSC20537", "firefly Hh reporter signal, replicate 1": 86537, "firefly Hh reporter signal, replicate 2": 2.18e5, "Renilla reference signal, replicate 1": 1232, "Renilla reference signal, replicate 2": 8631, "Outcome": "inactive"}
{"Target gene": "Trm7-32 (tRNA methyltransferase 7-32)", "amplicon": "DRSC15741", "firefly Hh reporter signal, replicate 1": 1.21e5, "firefly Hh reporter signal, replicate 2": 90360, "Renilla reference signal, replicate 1": 4896, "Renilla reference signal, replicate 2": 4145, "Outcome": "inactive"}
{"Target gene": "CG9393", "amplicon": "DRSC16486", "firefly Hh reporter signal, replicate 1": 79040, "firefly Hh reporter signal, replicate 2": 87159, "Renilla reference signal, replicate 1": 3920, "Renilla reference signal, replicate 2": 3690, "Outcome": "inactive"}
{"Target gene": "CG32568", "amplicon": "DRSC19913", "firefly Hh reporter signal, replicate 1": 56967, "firefly Hh reporter signal, replicate 2": 1.22e5, "Renilla reference signal, replicate 1": 1644, "Renilla reference signal, replicate 2": 5356, "Outcome": "inactive"}
